Measured values as given in PMC6401474.
No constants are given. Whether binding was seen depends on the method and setting. Binding seen in cells or lysates may run through a third protein. Some results given as binding are weak or reduced against the parent protein; the word gives no strength. Where a sequence is shown, tags or fusion partners need not be part of it.

Amino acid sequences for entries named in this document (tags omitted).
UniProt P15682: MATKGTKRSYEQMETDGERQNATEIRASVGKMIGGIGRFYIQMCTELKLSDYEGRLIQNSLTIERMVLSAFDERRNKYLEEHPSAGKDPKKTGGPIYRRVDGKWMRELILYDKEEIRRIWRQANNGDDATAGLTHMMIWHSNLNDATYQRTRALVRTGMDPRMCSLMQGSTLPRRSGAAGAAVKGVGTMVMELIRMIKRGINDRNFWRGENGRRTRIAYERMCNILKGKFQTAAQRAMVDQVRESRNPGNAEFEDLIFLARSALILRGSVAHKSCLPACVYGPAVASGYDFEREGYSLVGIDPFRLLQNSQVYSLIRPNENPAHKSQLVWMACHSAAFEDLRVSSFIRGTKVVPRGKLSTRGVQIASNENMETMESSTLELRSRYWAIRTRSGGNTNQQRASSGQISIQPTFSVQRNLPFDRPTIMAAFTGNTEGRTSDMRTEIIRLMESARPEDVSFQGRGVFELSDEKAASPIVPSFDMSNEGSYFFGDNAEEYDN

Target: T1, Flag-TRIM14 (UniProt Q14142)
T1 sequence: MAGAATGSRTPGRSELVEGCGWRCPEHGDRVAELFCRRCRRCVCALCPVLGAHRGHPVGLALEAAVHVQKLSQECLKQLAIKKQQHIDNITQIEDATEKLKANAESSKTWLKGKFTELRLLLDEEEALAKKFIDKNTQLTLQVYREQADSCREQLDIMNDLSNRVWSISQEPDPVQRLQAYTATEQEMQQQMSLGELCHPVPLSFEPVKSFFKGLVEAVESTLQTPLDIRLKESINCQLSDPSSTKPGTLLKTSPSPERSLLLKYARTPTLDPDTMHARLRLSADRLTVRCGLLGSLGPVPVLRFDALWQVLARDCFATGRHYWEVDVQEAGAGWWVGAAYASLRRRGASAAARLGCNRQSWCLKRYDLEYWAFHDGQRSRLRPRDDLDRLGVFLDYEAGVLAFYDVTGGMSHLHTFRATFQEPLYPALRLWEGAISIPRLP
Experiment: co-IP

GlucC-NP (from UniProt P15682 1-498)
binding: binds
